From article PMC8766550
Results are given in words; binding and its absence hold for the method and conditions named. In cells and extracts the contact can be indirect.

Protein sequences, listed by entry. Tags and fused reporters are not part of them. Lines headed by an entry give the natural chain unless they say otherwise; changes in a name come on top.
UniProt Q07820: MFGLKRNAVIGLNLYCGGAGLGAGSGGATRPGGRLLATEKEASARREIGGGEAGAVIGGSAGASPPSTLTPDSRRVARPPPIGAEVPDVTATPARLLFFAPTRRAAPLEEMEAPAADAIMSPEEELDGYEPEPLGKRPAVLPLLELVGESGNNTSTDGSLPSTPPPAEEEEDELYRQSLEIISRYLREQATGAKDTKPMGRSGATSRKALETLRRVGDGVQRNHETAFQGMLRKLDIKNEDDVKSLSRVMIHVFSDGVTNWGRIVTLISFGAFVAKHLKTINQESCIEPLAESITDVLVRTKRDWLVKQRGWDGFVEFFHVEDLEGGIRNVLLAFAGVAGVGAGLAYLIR
UniProt P06733: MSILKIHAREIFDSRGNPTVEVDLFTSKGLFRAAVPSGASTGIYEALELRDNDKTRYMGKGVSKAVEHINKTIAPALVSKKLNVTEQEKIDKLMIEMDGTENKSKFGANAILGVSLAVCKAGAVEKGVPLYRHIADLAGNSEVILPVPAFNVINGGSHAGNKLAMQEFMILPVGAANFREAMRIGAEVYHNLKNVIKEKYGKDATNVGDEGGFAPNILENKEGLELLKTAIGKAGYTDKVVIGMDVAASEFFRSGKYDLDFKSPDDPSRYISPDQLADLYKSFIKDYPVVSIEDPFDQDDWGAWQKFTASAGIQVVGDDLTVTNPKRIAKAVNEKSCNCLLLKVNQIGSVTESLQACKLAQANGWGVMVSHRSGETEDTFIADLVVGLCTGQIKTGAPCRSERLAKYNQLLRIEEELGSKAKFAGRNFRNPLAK

Target: loop domain deletion mutant of MCL1 (UniProt Q07820)
Assay: co-IP; anti-MCL1 antibody, MCL1 CRISPR HCT116 p53-/- cells transiently transfected with wild type or mutant MCL1; blots for CaM and ENO1

Substance: alpha-enolase (from UniProt P06733 1-434) (enzyme)
- binding: no binding
